# Inconclusive means that the source gave no clear call. Such entries were picked first, then a sample of the others. For some of these results: A potency beside an inconclusive call is a rough fit, not a confirmed value. Active and inactive are the calls of the source. Rule for the calls: active = hit-call score of the fitted dose curve at least 0.9, where 1 is the maximum; inconclusive = response in the unintended direction; inactive = score below 0.9.
# Chains of the proteins cited; added tags and fusions are not shown. Lines headed by an entry give the natural chain unless they say otherwise; changes in a name come on top.
# UniProt P08659, whole entry, looked up: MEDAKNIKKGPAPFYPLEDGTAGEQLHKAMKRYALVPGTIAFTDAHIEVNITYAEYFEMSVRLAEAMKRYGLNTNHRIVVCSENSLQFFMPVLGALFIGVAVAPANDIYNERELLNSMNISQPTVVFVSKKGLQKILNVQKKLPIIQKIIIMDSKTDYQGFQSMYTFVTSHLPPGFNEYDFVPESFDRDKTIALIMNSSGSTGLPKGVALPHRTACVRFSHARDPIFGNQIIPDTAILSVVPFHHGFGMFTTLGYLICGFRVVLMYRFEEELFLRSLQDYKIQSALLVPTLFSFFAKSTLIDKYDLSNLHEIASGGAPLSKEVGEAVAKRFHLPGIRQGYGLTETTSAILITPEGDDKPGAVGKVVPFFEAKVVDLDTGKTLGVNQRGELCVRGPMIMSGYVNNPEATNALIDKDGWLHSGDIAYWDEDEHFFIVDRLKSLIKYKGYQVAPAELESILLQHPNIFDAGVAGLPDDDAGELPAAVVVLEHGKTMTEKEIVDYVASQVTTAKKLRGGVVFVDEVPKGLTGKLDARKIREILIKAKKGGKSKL
# UniProt P10828: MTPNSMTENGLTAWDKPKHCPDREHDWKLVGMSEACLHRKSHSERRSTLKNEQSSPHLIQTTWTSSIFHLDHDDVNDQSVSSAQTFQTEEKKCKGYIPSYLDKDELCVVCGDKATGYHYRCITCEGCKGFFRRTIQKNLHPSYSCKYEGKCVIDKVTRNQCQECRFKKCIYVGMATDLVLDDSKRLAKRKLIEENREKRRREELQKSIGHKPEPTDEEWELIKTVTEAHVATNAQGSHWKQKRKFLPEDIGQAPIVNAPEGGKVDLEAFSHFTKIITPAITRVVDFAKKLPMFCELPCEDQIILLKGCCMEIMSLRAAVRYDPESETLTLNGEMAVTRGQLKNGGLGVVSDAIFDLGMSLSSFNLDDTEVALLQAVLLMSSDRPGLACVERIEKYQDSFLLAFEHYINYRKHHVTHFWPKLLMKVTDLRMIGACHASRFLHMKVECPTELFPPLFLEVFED
# UniProt P19793: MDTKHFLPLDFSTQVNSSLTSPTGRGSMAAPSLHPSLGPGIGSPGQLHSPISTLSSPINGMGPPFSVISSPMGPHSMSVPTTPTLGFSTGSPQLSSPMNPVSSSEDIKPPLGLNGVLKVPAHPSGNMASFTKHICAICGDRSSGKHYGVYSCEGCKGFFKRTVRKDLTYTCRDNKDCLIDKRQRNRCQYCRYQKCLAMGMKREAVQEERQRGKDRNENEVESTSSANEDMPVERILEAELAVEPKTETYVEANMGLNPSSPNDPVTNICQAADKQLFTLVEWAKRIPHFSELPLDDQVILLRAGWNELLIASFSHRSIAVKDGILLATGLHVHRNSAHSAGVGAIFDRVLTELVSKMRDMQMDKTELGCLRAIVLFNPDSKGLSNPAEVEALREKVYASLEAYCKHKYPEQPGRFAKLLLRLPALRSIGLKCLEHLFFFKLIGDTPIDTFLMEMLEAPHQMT
# UniProt P04637, whole entry, looked up: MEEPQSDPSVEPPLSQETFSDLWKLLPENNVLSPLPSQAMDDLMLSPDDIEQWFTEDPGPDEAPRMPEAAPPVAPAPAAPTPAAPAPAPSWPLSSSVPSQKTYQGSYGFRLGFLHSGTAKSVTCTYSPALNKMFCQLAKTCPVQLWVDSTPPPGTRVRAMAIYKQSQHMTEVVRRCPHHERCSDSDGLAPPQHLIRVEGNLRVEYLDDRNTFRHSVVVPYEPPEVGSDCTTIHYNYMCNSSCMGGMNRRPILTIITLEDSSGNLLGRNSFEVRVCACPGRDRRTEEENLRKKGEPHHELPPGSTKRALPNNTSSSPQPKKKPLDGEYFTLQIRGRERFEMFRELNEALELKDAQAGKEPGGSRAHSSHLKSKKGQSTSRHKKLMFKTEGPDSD
# UniProt P06401: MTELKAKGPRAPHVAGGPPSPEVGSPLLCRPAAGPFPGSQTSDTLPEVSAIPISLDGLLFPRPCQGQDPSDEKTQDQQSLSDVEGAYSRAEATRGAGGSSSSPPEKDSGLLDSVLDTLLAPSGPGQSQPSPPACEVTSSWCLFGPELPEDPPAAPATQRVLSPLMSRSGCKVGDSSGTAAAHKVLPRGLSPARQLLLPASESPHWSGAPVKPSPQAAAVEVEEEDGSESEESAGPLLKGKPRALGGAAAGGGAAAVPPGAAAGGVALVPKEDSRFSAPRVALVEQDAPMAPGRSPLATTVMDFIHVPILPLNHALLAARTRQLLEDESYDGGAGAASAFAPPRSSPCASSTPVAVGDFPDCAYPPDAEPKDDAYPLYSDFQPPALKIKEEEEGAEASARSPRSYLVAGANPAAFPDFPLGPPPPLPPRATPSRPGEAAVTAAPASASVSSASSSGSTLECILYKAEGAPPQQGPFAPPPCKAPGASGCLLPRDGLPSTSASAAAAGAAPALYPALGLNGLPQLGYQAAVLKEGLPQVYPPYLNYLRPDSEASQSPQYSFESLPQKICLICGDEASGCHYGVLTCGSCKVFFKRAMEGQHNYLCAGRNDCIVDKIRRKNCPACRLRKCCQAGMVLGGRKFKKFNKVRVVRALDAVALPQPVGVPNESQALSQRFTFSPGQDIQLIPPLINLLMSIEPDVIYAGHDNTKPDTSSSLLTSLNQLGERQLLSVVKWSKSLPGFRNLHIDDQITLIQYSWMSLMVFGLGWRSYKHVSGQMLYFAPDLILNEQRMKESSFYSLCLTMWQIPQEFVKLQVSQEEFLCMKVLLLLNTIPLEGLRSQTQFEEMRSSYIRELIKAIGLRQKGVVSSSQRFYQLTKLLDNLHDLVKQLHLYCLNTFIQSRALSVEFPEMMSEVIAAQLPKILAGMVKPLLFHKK
# Experiments:
# [1] = CCTE_Simmons_CellTiterGLO_HEK293T: Viability Assessment in CCTE's Assays for Thyroperoxidase (TPO) Inhibition, Simmons Lab (AID 2283665);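 note: cells exposed to compound for 24 h before readout; actives reduce ATP signal below DMSO vehicle meaning cytotoxicity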
# Summary of the method: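 ATP depletion measured in HEK293T cells after 24 h dosing (8 concentrations, 5 nM–87.5 uM final; DMSO 0.5%) using CellTiter-Glo luminescence; curves fit for loss of signal against DMSO baseline.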
# [2] = biological target: Luciferin 4-monooxygenase (Photinus pyralis) (UniProt P08659); assay: CCTE_Simmons_QuantiLum_inhib_2: CCTE's Firefly Luciferase Inhibition Assay, Simmons Lab (AID 2283767);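 note: potency for inhibitors that lower luciferase luminescence relative to DMSO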
# Summary of the method: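 Eight-point titrations of each chemical, 5 nM–87.5 uM final in 0.5% DMSO, were run in three biological replicates against recombinant luciferase for 30 min at 37C. Bioluminescence signal loss, read on reagent injection, gave the inhibition endpoint.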
# [3] = TOX21_p53_BLA_p5_viability: Viability Assessment in the Tox21 HCT-116 p53 Agonism Beta-lactamase Assay, Phase 5 (AID 2283600)
# Summary of the method: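 Here cell health was gauged by ATP levels in wells holding 4000 cells, each treated 16 h with DMSO-delivered compounds at 217-fold dilution; reduced luminescence marked toxicity.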
# THRB (gene 7068) = THRB (gene 7068) (UniProt P10828); assay: TOX21_TRB_COA_Antagonist_Followup_ratio: Tox21 Thyroid Hormone Receptor beta Antagonism through Coactivator Recruitment Follow-Up Assay, Ratio (AID 2283967)
# Summary of the method: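 Coactivator (SRC-2) recruitment to purified GST-TRβ ligand-binding domain is monitored by terbium-to-fluorescein energy transfer, emission ratio 520:495 nm. DMSO wells define 0% and T3 wells 100% activity.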
# [4] = biological target: Retinoic acid receptor RXR-alpha (Homo sapiens) (UniProt P19793); assay: TOX21_TR_RXR_BLA_Antagonist_Followup_ratio: Tox21 Thyroid Hormone Receptor beta Retinoid X Receptor alpha (RXRa) Antagonism Beta-lactamase (BLA) Follow-Up Assay, Ratio (AID 2283972)
# Summary of the method: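 Compounds were tested in triplicate at 11 concentrations on RXRa-bla HEK293T cells for 16 h. Substrate cleavage ratio, normalized to DMSO, gave the endpoint.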
# [5] = biological target: Cellular tumor antigen p53 (Homo sapiens) (UniProt P04637); assay: TOX21_p53_BLA_p4_ratio: Tox21 HCT-116 p53 Agonism Beta-lactamase Assay, Ratio, Phase 4 (AID 2283601)
# Summary of the method: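 HCT116 cells carrying an inducible beta-lactamase reporter were plated at 4000 cells/well, rested 5 h, then exposed to compounds in DMSO (217-fold dilution) for 16 h at 37C. CCF4-AM substrate was loaded 2 h at room temperature; 460/530 nm emission ratio scored gain-of-signal versus DMSO.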
# [6] = TOX21_PR_LUC_Followup_Antagonist_viability: Viability Assessment in the Tox21 HEK293 Progesterone Receptor (PR) Antagonism Luciferase Follow-Up Assay (AID 2283940)
# Summary of the method: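 Loss of CellTiter-Glo ATP signal indicates cytotoxicity in HEK293-PR-A-luc cells grown in 10% charcoal-stripped FBS medium, seeded 3,000 per well and incubated 16 h with compound at 37C.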
# [7] = TOX21_PR_LUC_Followup_Agonist_viability: Viability Assessment in the Tox21 HEK293 Progesterone Receptor (PR) Agonism Luciferase Follow-Up Assay (AID 2283941);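 note: loss of signal means cytotoxicity so actives lower viability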
# Summary of the method: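 Seeding: HEK293-PR-A-luc, 3,000 cells/well, 5 h at 37C. Treatment: compound in DMSO, 16 h, 37C. Read: CellTiter-Glo ATP luminescence, signal loss taken as lower viability.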
# [8] = CCTE_Harrill_HTTr_CellCount_MCF7: CCTE's Cell Proliferation Assessment for the High-Throughput Transcriptomics (HTTr) Platform, Harrill Lab (AID 2284012);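 note: count of Hoechst-stained nuclei per well by high-content imaging in MCF-7 cells; cells exposed to compound for six hours; intended direction is loss of nuclei count meaning fewer cells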
# Summary of the method: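 For this full-screen endpoint, MCF-7 cultures received eight compound dilutions for six hours. Well nuclei counts from Hoechst imaging were analyzed relative to DMSO.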
# [9] = TOX21_PR_BLA_Followup_Antagonist_viability: Viability Assessment in the Tox21 HEK293 Progesterone Receptor (PR) Antagonism Beta-lactamase Follow-Up Assay (AID 2283936);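 note: cells exposed to compound with R5020 agonist for 16 h; hits lower the luminescence signal meaning cytotoxicity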
# Summary of the method: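 PR-UAS-bla HEK293T cells in medium with 2% charcoal-stripped FBS were treated with compounds plus R5020 for 16 hr at 37C. After the beta-lactamase read, CellTiter-Glo was added to the same wells and luminescence read after 30 min at room temperature.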
# PGR (gene 5241) [10] = biological target: PGR (gene 5241) (UniProt P06401); assay: TOX21_PR_LUC_Followup_Antagonist: Tox21 HEK293 Progesterone Receptor (PR) Antagonism Luciferase Follow-Up Assay (AID 2283938);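 note: curve fitted upward as signal gain over DMSO baseline despite antagonist label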
# Summary of the method: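 Luciferase reporter in HEK293-PR-A-luc cells: 16 h compound treatment at 37C, ONE-Glo luminescence detection, DMSO as negative control and baseline.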
# [11] = ACEA_ER_AUC_viability: ACEA Biosciences xCELLigence Real-Time Cell Analysis on Estrogen Receptor Agonism for Viability (AID 2283782);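 note: hit means loss of impedance signal meaning reduced cell growth or viability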
# Summary of the method: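 Continuous-exposure impedance cell analysis uses T-47D cells in charcoal-stripped serum, eight 1:4 dilutions topping at 100 uM final, biological duplicate. Area under the growth curve at 80 h is fitted against DMSO baseline.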
# [12] = TOX21_TRB_BLA_Antagonist_Followup_viability: Viability Assessment in the Tox21 Thyroid Hormone Receptor beta Antagonism Beta-lactamase (BLA) Follow-Up Assay (AID 2283961)
# Summary of the method: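 In the same wells as the reporter read, cell health was gauged by CellTiter-Glo ATP luminescence, with signal loss indicating reduced viability. Cells had been exposed to test compounds for 18 h.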
# PGR (gene 5241) [13] = biological target: PGR (gene 5241) (UniProt P06401); assay: TOX21_PR_BLA_Followup_Agonist_ratio: Tox21 HEK293 Progesterone Receptor (PR) Agonism Beta-lactamase Follow-Up Assay, Ratio (AID 2283933)
# Summary of the method: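 Ratio-based beta-lactamase reporter signal after 16 hr compound treatment of PR-UAS-bla HEK293T cells at 37C. Substrate loading lasted 2 hr at room temperature.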
# PGR (gene 5241) [14] = biological target: PGR (gene 5241) (UniProt P06401); assay: TOX21_PR_BLA_Followup_Antagonist_ratio: Tox21 HEK293 Progesterone Receptor (PR) Antagonism Beta-lactamase Follow-Up Assay, Ratio (AID 2283934);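 note: PR-UAS-bla HEK293T cells stimulated with 1 nM R5020 agonist for 16 hr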
# Summary of the method: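 Measured in PR-UAS-bla HEK293T cells co-treated with compound and 1 nM promegestone for 16 hr; beta-lactamase ratio read after 2 h FRET substrate loading, with parallel CellTiter-Glo cytotoxicity.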
smiles,measurement,setting,value
O=c1cc(O)cc[nH]1,AC50,[1],inconclusive: 53.3 µM
same,AC50,[2],inconclusive: 0.0118 µM
O=c1[nH]c2ccccc2s1,AC50,[1],inconclusive: 53.6 µM
CCCCCOc1ccc(C2SC(=O)NC2=O)cc1OCC (configuration not stated),outcome,[3],inactive
same,AC50,THRB (gene 7068),active: 10.8 µM
same,AC50,[4],inconclusive: 13.8 µM
CCO[Si](C)(CCCOCC1CO1)OCC (configuration not stated),AC50,[3],inconclusive: 46.1 µM
same,AC50,[5],inconclusive: 46.1 µM
CCCOc1ccc2c(c1)CC[C@@H]1[C@@H]2CC[C@]2(C)C(OC)CC[C@@H]12 (some centres not stated),AC50,[6],inconclusive: 23 µM
same,AC50,[7],inconclusive: 23 µM
CC(=O)NCCCS(=O)(=O)O,outcome,[3],inactive
same,outcome,[8],inactive
CN(C)C(=S)N(C)C,AC50,[1],inconclusive: 3.01 µM
C[C@]12CCC(=O)C=C1CC[C@@H]1[C@@H]2[C@@H](O)C[C@@]2(C)[C@H]1CC[C@]2(O)C(=O)CO,AC50,[9],inconclusive: 23 µM
same,AC50,PGR (gene 5241) [10],inconclusive: 0.13 µM
same,AC50,[6],inconclusive: 39.5 µM
CCCC1C(CC)=CC(CC)=CN1c1ccccc1 (configuration not stated),AC50,[3],inconclusive: 46.1 µM
Cc1ccccc1N=C(N)N=C(N)N,AC50,[11],inconclusive: 50 µM
Cc1c(Nc2ncccc2C(=O)O)cccc1C(F)(F)F,outcome,[3],inactive
same,outcome,[12],inactive
same,outcome,THRB (gene 7068),inactive
same,AC50,[4],inconclusive: 8.56 µM
C[C@@H]1C[C@H]2[C@@H]3CCC4=CC(=O)C=C[C@]4(C)[C@@]3(F)[C@@H](O)C[C@]2(C)[C@@]1(O)C(=O)COC(=O)c1ccncc1,AC50,PGR (gene 5241) [13],active: 26.1 µM
same,AC50,PGR (gene 5241) [10],inconclusive: 0.0194 µM
Cc1nc(NS(=O)(=O)c2ccc(N)cc2)nc(C)c1Br,AC50,[5],inconclusive: 37.3 µM
CC(C)c1ccc2oc3nc(N)c(C(=O)O)cc3c(=O)c2c1,outcome,[3],inactive
same,AC50,[5],inconclusive: 23 µM
C=CC1CNC(=S)O1 (configuration not stated),AC50,[1],inconclusive: 53.6 µM
CCCC(=O)OCOC(=O)C1=C(C)NC(C)=C(C(=O)OC)C1c1cccc(Cl)c1Cl (configuration not stated),outcome,[9],inactive
same,AC50,[6],inconclusive: 23 µM
same,AC50,[7],inconclusive: 23 µM
CCCC(=O)O[C@]1(C(=O)CO)CC[C@H]2[C@@H]3CCC4=CC(=O)CC[C@]4(C)[C@H]3[C@@H](O)C[C@@]21C,AC50,PGR (gene 5241) [14],inconclusive: 31 µM
same,AC50,[6],inconclusive: 0.0239 µM
same,AC50,[7],inconclusive: 23 µM
C[C@]12CCC(=O)C=C1CC[C@H]1[C@@H]3CC[C@](O)(C(=O)CO)[C@@]3(C)C[C@H](O)[C@@]12F,AC50,[6],inconclusive: 23 µM
CC(=O)OCC(=O)[C@@]1(O)[C@H](C)C[C@H]2[C@@H]3CCC4=CC(=O)C=C[C@]4(C)[C@@]3(F)[C@@H](O)C[C@@]21C,AC50,[7],inconclusive: 23 µM
O=S(=O)(O)C(F)(F)C(F)(F)OC(F)(F)C(F)(F)F,AC50,[11],inconclusive: 11.4 µM

# An excerpt of these results, with bars between the fields.
smiles | measurement | setting | value
Cc1c(Nc2ncccc2C(=O)O)cccc1C(F)(F)F | outcome | [12] | inactive
CC(C)c1ccc2oc3nc(N)c(C(=O)O)cc3c(=O)c2c1 | AC50 | [5] | inconclusive: 23 µM
